PubChem BioAssay AID1671195, Yale University, 2021

Screen: 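Genes whose knockdown alters LDL uptake in liver cancer cells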 (primary screen)
Cell system: human Huh7 hepatoma cells
Reagent: siRNA pool against human genes, 18 nM
Timing: about 2 to 2.5 days of knockdown, then 8 h LDL uptake
Conditions: DiI-labelled LDL at 30 µg/ml for 8 h, in lipoprotein-deficient serum medium
Detection: 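Per-cell DiI-LDL intensity by automated imaging; well means scaled to the plate median and given as a robust z-score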
Reading the numbers: robust z-score: higher = more LDL uptake after knockdown
Active means: 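Active when two or more replicates show a robust z-score above 2 or below -2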
This is an unselected part of about 22,000 reagents. Over the whole deposit, about 1,510 (6.9%) got an active call. 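Active includes knockdowns raising or lowering LDL uptake; positive z-scores mean more uptake, negative mean less.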

RTN4RL2 (reticulon 4 receptor like 2) showed robust z-score, replicate 1 = -0.573; robust z-score, replicate 2 = 0.257; robust z-score, replicate 3 = 0.402; inactive.
LOC400741 (retired record) showed robust z-score, replicate 1 = 1.14; robust z-score, replicate 2 = 0.751; robust z-score, replicate 3 = 0.978; inactive.
For SYNC (syncoilin, intermediate filament protein), the values are robust z-score, replicate 1 = -1.04; robust z-score, replicate 2 = -0.328; robust z-score, replicate 3 = -0.98; inactive.
With knock-down of LOC388622 (retired record), the screen gave robust z-score, replicate 1 = -0.176; robust z-score, replicate 2 = -0.412; robust z-score, replicate 3 = -0.262; inactive.
After knock-down of TIMMDC1 the results were robust z-score, replicate 1 = 0.216; robust z-score, replicate 2 = 0.411; robust z-score, replicate 3 = 0.444; inactive.
For LCA5L (lebercilin LCA5 like) the deposit lists robust z-score, replicate 1 = -1.66; robust z-score, replicate 2 = -1.35; robust z-score, replicate 3 = -1.64; inactive.
Knock-down of SRGAP2C (SLIT-ROBO Rho GTPase activating protein 2C) came out at: robust z-score, replicate 1 = -0.939; robust z-score, replicate 2 = -1.15; robust z-score, replicate 3 = -1.03; inactive.
Knock-down of MYL9 (myosin light chain 9) came out at: robust z-score, replicate 1 = 0.179; robust z-score, replicate 2 = -0.0837; robust z-score, replicate 3 = 0.131; inactive.
For UBE2J2 (ubiquitin conjugating enzyme E2 J2), the entry reads robust z-score, replicate 1 = 0.469; robust z-score, replicate 2 = -0.345; robust z-score, replicate 3 = -0.991; inactive.
Depletion of AP3D1 (adaptor related protein complex 3 subunit delta 1) came out at: robust z-score, replicate 1 = 1.51; robust z-score, replicate 2 = 0.13; robust z-score, replicate 3 = 0.536; inactive.
CAMTA1 (calmodulin binding transcription activator 1) gave robust z-score, replicate 1 = 0.718; robust z-score, replicate 2 = -0.178; robust z-score, replicate 3 = 1.43; inactive.
After knock-down of XPO7 (exportin 7), the screen gave robust z-score, replicate 1 = -0.114; robust z-score, replicate 2 = 1.85; robust z-score, replicate 3 = -0.309; inactive.
LGALS17A (galectin 14 pseudogene) scored robust z-score, replicate 1 = -0.531; robust z-score, replicate 2 = -0.282; robust z-score, replicate 3 = -0.163; inactive.
Silencing of OTOP2 (otopetrin 2) came out at: robust z-score, replicate 1 = 2.27; robust z-score, replicate 2 = 0.367; robust z-score, replicate 3 = 0.0367; inactive.
After knock-down of ZNF211 (zinc finger protein 211) the results were robust z-score, replicate 1 = -1.04; robust z-score, replicate 2 = -0.396; robust z-score, replicate 3 = -0.967; inactive.
Against IRAG2 (inositol 1,4,5-triphosphate receptor associated 2), the entry reads robust z-score, replicate 1 = 0.296; robust z-score, replicate 2 = -0.167; robust z-score, replicate 3 = -0.943; inactive.

Laid out differently: results already given
target gene	robust z-score, replicate 1	robust z-score, replicate 2	robust z-score, replicate 3	outcome
ZNF211 (zinc finger protein 211)	-1.04	-0.396	-0.967	inactive
IRAG2 (inositol 1,4,5-triphosphate receptor associated 2)	0.296	-0.167	-0.943	inactive
